We go through six compounds from PubChem BioAssay AID200 (DTP/NCI, 2004).

The structures appear in SMILES notation. The list is a part of this screen's results and no random one: its compounds were picked by chemical class. Not every dose and run of a compound is shown. T/C: endpoint of the treated group in % of that of the vehicle group. Where survival is the endpoint, this PubChem deposit counts one and a half times the control or more as active, and values a quarter to a half above the control carry no call in these data; other NCI protocols may use other cut-offs. Schedules are NCI's codes, taken here to give the interval after Q, in days (D) or hours (H), and the number of doses after X. Some entries show no survivor count and are marked so; the dose need not have been tolerated. Some doses were run more than once; the values are given in rising order.

The experiment concerns B6C3F1 mice, B16 melanoma ip, median survival T/C. Nature of the experiment: NCI In Vivo Anticancer Drug Screen. Data for tumor model B16 Melanoma (intraperitoneal) in B6C3F1 mice. Conditions: T/C endpoint: median survival time, schedule: Q01DX009 (ip), higher T/C = longer survival. As to the method:
The antitumor activity of compounds was measured in mice bearing transplantable tumors. Survival or tumor size were measured and the results are expressed as the measurement made in the treated group (T) divided by the measurement made in the vehicle treated control group (C). The tumor model used in this assay is B16 Melanoma (intraperitoneal) in B6C3F1 mice

Setting [1] is: dose: 0.38 mg/kg/injection, vehicle: saline + alcohol.
Where [2] appears, read: dose: 0.38 mg/kg/injection, vehicle: water.
Where [3] appears, read: dose: 0.75 mg/kg/injection, vehicle: saline + alcohol.
Setting [4] is: dose: 0.75 mg/kg/injection, vehicle: water.
[5] abbreviates: dose: 1.5 mg/kg/injection, vehicle: saline + alcohol.
Where [6] appears, read: dose: 3.0 mg/kg/injection, vehicle: saline + alcohol.

Take `C[C@@H]1CCOC(=O)/C=C/C=C\C(=O)O[C@@H]2C[C@H]3O[C@@H]4[C@@H]5OC5(C)CCC4(COC(=O)[C@H]1O)[C@]2(C)[C@@]31CO1` (some centres not stated): the T/C is 121 % of control [survivor count not shown] (dose: 0.25 mg/kg/injection, vehicle: Klucel (hydroxypropylcellulose) (HPC)); 136 % of control [survivor count not shown] (dose: 0.5 mg/kg/injection, vehicle: Klucel (hydroxypropylcellulose) (HPC)); 129 % of control [survivor count not shown] (dose: 1.0 mg/kg/injection, vehicle: Klucel (hydroxypropylcellulose) (HPC)); 150 % of control [survivor count not shown] (dose: 2.0 mg/kg/injection, vehicle: Klucel (hydroxypropylcellulose) (HPC)); 146 % of control [survivor count not shown] (dose: 4.0 mg/kg/injection, vehicle: Klucel (hydroxypropylcellulose) (HPC)).

Turning to `CC(=O)OCC12CC(O)C(C)=CC1OC1C(O)C(OC(C)=O)C2(C)C12CO2` (configuration not stated), the T/C was 130 % of control [survivor count not shown] (dose: 0.16 mg/kg/injection, vehicle: saline); 136 % of control [survivor count not shown] (dose: 0.31 mg/kg/injection, vehicle: saline); 159 % of control [survivor count not shown] (dose: 0.63 mg/kg/injection, vehicle: saline).

Consider `CC(=O)OC[C@]12CCC(C)=C[C@H]1O[C@@H]1[C@H](O)[C@@H](OC(=O)CCl)[C@@]2(C)[C@@]12CO2`, for which the T/C was 117 % of control [survivor count not shown] under setting [1], 131 % of control [survivor count not shown] under setting [2] and 120 % of control [survivor count not shown] under setting [3].

Regarding `C/C=C/C(=O)OC[C@]12CCC(C)=C[C@H]1O[C@@H]1[C@H](O)[C@@H](O)[C@@]2(C)[C@@]12CO2`, the T/C is, setting by setting: under setting [1], 112 [survivor count not shown] and 123 % of control [survivor count not shown]; under setting [2], 121 % of control [survivor count not shown]; under setting [3], 118 [survivor count not shown] and 123 % of control [survivor count not shown]; under setting [4], 127 % of control [survivor count not shown]; under setting [5], 123 [survivor count not shown] and 125 % of control [survivor count not shown]; under setting [6], 118 [survivor count not shown] and 122 % of control [survivor count not shown].

With `CC(=O)OC[C@]12CCC(C)=C[C@H]1O[C@@H]1[C@H](O)[C@@H](OC(C)=O)[C@@]2(C)[C@@]12CO2`, for the setting “dose: 3.12 mg/kg/injection, vehicle: Klucel (hydroxypropylcellulose) (HPC)”, the T/C was 118 % of control [survivor count not shown].

For the compound `CC(=O)OC[C@]12CCC(C)=C[C@H]1O[C@@H]1C(=O)[C@@H](OC(=O)CCl)[C@@]2(C)[C@@]12CO2`, the T/C was 114 % of control [survivor count not shown] (dose: 0.19 mg/kg/injection, vehicle: saline + alcohol); 127 % of control [survivor count not shown] under setting [1]; 131 % of control [survivor count not shown] under setting [2]; 120 % of control [survivor count not shown] under setting [3]; 147 % of control [survivor count not shown] under setting [4]; 134 % of control [survivor count not shown] under setting [5]. In addition, the T/C is 143 % of control [survivor count not shown] (dose: 1.5 mg/kg/injection, vehicle: water); 122 % of control [survivor count not shown] under setting [6]; 136 % of control [survivor count not shown] (dose: 3.0 mg/kg/injection, vehicle: water).
